Over roughly 33,000 sequences, “E-score (-0.5 to 0.5)” has its median near -0.016; the highest 2% begin near 0.3. Some of the results follow.

The test has as its target T1, Yer184c (UniProt P39961).
T1 sequence: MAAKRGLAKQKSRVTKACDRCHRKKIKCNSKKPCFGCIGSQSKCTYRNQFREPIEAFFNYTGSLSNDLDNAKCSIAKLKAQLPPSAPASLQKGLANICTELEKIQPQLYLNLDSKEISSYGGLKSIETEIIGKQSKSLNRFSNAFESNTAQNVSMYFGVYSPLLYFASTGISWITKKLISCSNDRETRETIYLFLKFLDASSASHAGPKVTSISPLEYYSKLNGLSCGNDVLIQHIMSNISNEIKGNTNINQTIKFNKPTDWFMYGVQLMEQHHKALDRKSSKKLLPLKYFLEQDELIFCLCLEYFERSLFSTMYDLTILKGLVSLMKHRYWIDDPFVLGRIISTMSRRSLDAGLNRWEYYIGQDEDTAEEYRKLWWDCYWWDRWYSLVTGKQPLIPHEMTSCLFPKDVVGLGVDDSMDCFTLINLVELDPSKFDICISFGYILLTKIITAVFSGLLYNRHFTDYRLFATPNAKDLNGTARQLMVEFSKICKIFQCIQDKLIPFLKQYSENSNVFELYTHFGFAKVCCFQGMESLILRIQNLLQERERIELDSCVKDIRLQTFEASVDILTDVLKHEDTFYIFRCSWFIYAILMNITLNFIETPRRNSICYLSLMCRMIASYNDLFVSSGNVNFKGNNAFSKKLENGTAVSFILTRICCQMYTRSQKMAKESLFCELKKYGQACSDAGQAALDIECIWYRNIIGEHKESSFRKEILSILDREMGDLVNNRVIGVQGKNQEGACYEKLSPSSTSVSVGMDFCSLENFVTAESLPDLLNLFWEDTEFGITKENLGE
Put plainly: PBM E-score (8-mer binding enrichment) (E-score (-0.5 to 0.5)); higher = stronger / more preferred TF binding. Particulars: protein concentration: 100 nM; construct: GST-full length. The essentials:
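Yeast transcription factors, full-length or as DNA-binding domains, were expressed with a GST tag using PURExpress in vitro transcription/translation. At about 100-200 nM they were applied to universal all-10-mer Agilent arrays, double-stranded by primer extension on fresh or once-stripped slides. Fluorescent anti-GST detected bound protein, and masliner normalised the scans. E-scores for ungapped eight-base words, pooled with reverse complements, came from the Universal PBM Analysis Suite.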
For AAGCCCGA, the “PBM E-score” value was determined as 0.0527.
For the sequence CGAGAATC, the “PBM E-score” value was 0.156.
On to ATCGACCA, for which the “PBM E-score” value was -0.178.
Turning to ACACAATC, the “PBM E-score” value came out at 0.07.
The same measure for CAGGGATC: -0.129.
For the sequence AGGACTCG, the “PBM E-score” value was -0.182.
GACAAATA: the “PBM E-score” value turned out to be 0.0779.
As for TGATTGCA, the “PBM E-score” value is -0.101.
Regarding ACCCGCAC, the “PBM E-score” value is -0.146.
In the case of CAGACGGG, the “PBM E-score” value is -0.207.
AAATCCCG: the “PBM E-score” value turned out to be 0.153.
Next, AGGATTGC: -0.076; CGCCGCTC: 0.144.
Next, ATGATATC: -0.0352.
The same measure for ATGAGCCA: -0.114; for CCCCACGC: -0.299.
As to ACACTTGG, the “PBM E-score” value was -0.094.
For GGTGCCAA, the “PBM E-score” value is -0.106.
Regarding ACTTCGAG, the “PBM E-score” value worked out at 0.0369.
As to ATCGGCTC, the “PBM E-score” value was determined as 0.165.
For AGACGTTA, the “PBM E-score” value was -0.146.
For GACCTTGA, the “PBM E-score” value was -0.136.
As to AAACATCA, the “PBM E-score” value is -0.0701.
The same measure for AGGTAGGG: -0.236; for AGAATTCC: 0.0683.
Regarding TGTCAGAA, the “PBM E-score” value was found to be 0.0255.
Next, GCTACAAA: 0.197.
For ACGTTGAA, the “PBM E-score” value was 0.0599.
In the case of ATGCAACC, the “PBM E-score” value is -0.0353.
Take CACTATTC: the “PBM E-score” value was 0.141.
Consider AAGGATGA, for which the “PBM E-score” value is -0.214.
For CATGCACG, the “PBM E-score” value was -0.177.
For the sequence AAGTTCGG, the “PBM E-score” value was found to be 0.278.
Take AAGAGATG: the “PBM E-score” value was -0.0581.
Next, CTGGACCA: -0.121.
With CGAGATAG, the “PBM E-score” value was -0.151.
Next, TAATCCGA: 0.172.
On to CTTAAAAG, for which the “PBM E-score” value was -0.0115.
The same measure for ACAAGGAG: 0.0222; for ATTCGCAG: 0.048; for AAGTTAGA: 0.0688.
For the sequence ACAAGATG, the “PBM E-score” value is -0.168.
Regarding AAATTGGC, the “PBM E-score” value was -0.144.
Next, AACGGCTG: 0.0658; CCATACAC: 0.0635.
As to AGCGCGAG, the “PBM E-score” value was -0.0145.
As to AAGCCACG, the “PBM E-score” value is -0.0993.
For TCGAAGAA, the “PBM E-score” value is -0.0488.
Turning to ACAGAAAT, the “PBM E-score” value is 0.21.
On to ACCTGTAA, for which the “PBM E-score” value is -0.103.
As to CCCAGTAA, the “PBM E-score” value was -0.0821.
GCGTTAAC: the “PBM E-score” value was found to be 0.041.
As for CTTTATGC, the “PBM E-score” value worked out at 0.183.
For the sequence TTGTAAAA, the “PBM E-score” value is 0.0967.
For ACATCGAG, the “PBM E-score” value is -0.14.
Consider CCCTCCAA, for which the “PBM E-score” value is -0.193.
ACTATCTG: the “PBM E-score” value was -0.0595.
Next, AAGTGCAT: -0.021.
For the sequence AGGCTCAT, the “PBM E-score” value was -0.102.
The same measure for ACCAGAAA: 0.121; for AAGCGCCT: -0.14.
Consider GAGGGCCC, for which the “PBM E-score” value is -0.241.
The same measure for CACTTTGA: -0.151.
In the case of GCAATGTA, the “PBM E-score” value was -0.042.
As to ACCCCTGC, the “PBM E-score” value was -0.322.
Regarding CGAATTTA, the “PBM E-score” value is 0.223.
Regarding TAGGCATA, the “PBM E-score” value is -0.193.
GCATTGGC: the “PBM E-score” value was -0.269.
CGGGAGGC: the “PBM E-score” value is -0.193.
The same measure for ATTGGATC: 0.0272; for TGGTACAA: -0.134.
The same measure for ACTAATCC: 0.0469; for TATTATGA: 0.0656; for GCCTGCCC: -0.2.
On to AACCGCGG, for which the “PBM E-score” value is 0.372.
Take CTGAGTTA: the “PBM E-score” value is -0.00443.
On to GCACGTCA, for which the “PBM E-score” value is -0.275.
For CCTACAAC, the “PBM E-score” value came to 0.0109.
ATCACGTA: the “PBM E-score” value was -0.172.
Next, GCCACACC: -0.131.
For the sequence ATTTGTAG, the “PBM E-score” value is 0.0971.
Turning to ATCTCAGG, the “PBM E-score” value was -0.154.
Take AGAGCGAT: the “PBM E-score” value was -0.245.
The same measure for AGCCAACA: -0.127; for ACCAAAGC: 0.0124.
Regarding ACGCGTGC, the “PBM E-score” value was -0.111.
As to AGGGTGGG, the “PBM E-score” value is -0.0967.
As for CATGTTAG, the “PBM E-score” value was -0.0773.
ATGATTTG: the “PBM E-score” value is -0.00599.
In the case of AGCCGGCA, the “PBM E-score” value was found to be 0.404.
Turning to CTGAATAC, the “PBM E-score” value is -0.0281.
Next, TCATGCAA: -0.0327.
AAATCTCC: the “PBM E-score” value is -0.0843.
Next, CAGAAAAG: 0.12.

Values taken from the supplement of paper PMC3334620.
